Measured values published in PubChem BioAssay AID624297 (National Center for Advancing Translational Sciences (NCATS), 2012).
Among all 340,000 compounds or so, about 6,200 (1.8%) were called active. Inconclusive means that the source gave no clear call. Such entries were picked first, then a sample of the others. The call rests on the fitted dose curve; in most records, active means well fitted activation curve with a large enough effect; inconclusive means small, poorly fitted or top-dose-only effect; inactive means no such curve, though single readings can be large or run the other way. A potency beside an inconclusive call is a rough fit, not a confirmed value.
Potency means the concentration at half of the fitted maximal effect.

Assay: A quantitative high throughput screen for small molecules that induce DNA re-replication in SW480 colon adenocarcinoma cells. Further: nearly all actives have a fitted effect of over 55% in size. On re-replication activation: % of control where 0% means no effect.
Conditions: Hoechst DNA content imaging, 48 h; re-replication activation: at 46.1 µM (top of the series) unless noted
Method in brief: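 Quantitative HTS format with DMSO vehicle controls; 48 hr drug incubation at 37 C, then 40 min Hoechst staining and scanning imager measurement at 405 nm excitation.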
With `COc1ccc(C2SCCN2C(=O)c2ccc([N+](=O)[O-])cc2)cc1` (stereo not drawn) the Potency was inconclusive: 29.1 µM [activator, single point].
For `O=[N+]([O-])c1ccccc1C=NN1CCCCCC1`, the “re-replication activation” value was inactive: 3.07%.
In the case of `Cc1ccccc1CSCC(=O)NC(=O)NC(C)(C)C`, the Potency is reported as inconclusive: 29.1 µM [activator, partial curve, poor fit].
In the case of `O=C(O)c1ccc(N2C(=O)c3ccc(C(=O)c4cccc([N+](=O)[O-])c4)cc3C2=O)cc1`, the “re-replication activation” value is reported as inactive: 1.64%.
For `Cc1ccc2nc(Cl)c3cc(C(=O)NCCCN4CCCC4)sc3c2c1`, the Potency was inconclusive: 18.4 µM [activator, single point].
For `COc1cccc(-c2cc(C(=O)NCCCN3CCOCC3)no2)c1`, the “re-replication activation” value was inactive: -1.4%.
For `O=C(Nc1cccc(C(=O)O)c1)Nc1ccc2c(c1)OCO2`, the “re-replication activation” value was inactive: -0.864%.
With `CCc1cccc(C)c1NC(=O)c1ccc(CN2CCc3ccccc3C2)cc1` the “re-replication activation” value was inactive: 16.5%.
For `Cc1cccc(CN2C(=O)c3ccccc3Sc3ccc(C(=O)NCCN4CCOCC4)cc32)c1`, the “re-replication activation” value was inactive: 2.91%.
For `CCOC(=O)c1c(NC(=O)CSc2ncnc3ccccc23)sc(C)c1C`, the “re-replication activation” value was inactive: 2.71%.
For `C=CCn1c(SCC(=O)c2ccccc2)nnc1-c1cc2ccccc2o1`, the “re-replication activation” value was inactive: -4.38%.
In the case of `CCCc1cc(C(=O)Nc2sc3c(c2C#N)CCC3)no1`, the Potency is reported as inconclusive: 20.6 µM [activator, partial curve, poor fit].
In the case of `COC(=O)[C@]1(Cc2ccccc2)N[C@H](CN(C)S(=O)(=O)c2ccc(C(C)(C)C)cc2)[C@@H]2C(=O)N(Cc3ccccc3)C(=O)[C@@H]21`, the Potency is reported as inconclusive: 0.0206 µM [activator, full curve, poor fit].
For `CCOCCCNC(=O)/C(C#N)=C/c1cc(Br)c(O)c(Br)c1`, the Potency was active: 8.2 µM.
In the case of `O=[N+]([O-])c1cccc(-c2csc(Nc3ccccc3)n2)c1`, the Potency is reported as inconclusive: 0.731 µM [activator, full curve, poor fit].
In the case of `CN(CC(=O)Nc1ccc(Cl)c(C(F)(F)F)c1)C(=O)C1(c2ccccc2)CC1`, the Potency is reported as inconclusive: 23.1 µM [activator, single point].
In the case of `COc1ccc(N=C2SC(C(N)=O)CC(=O)N2CCc2ccc(OC)c(OC)c2)cc1` (stereo not drawn), the “re-replication activation” value is reported as inactive: 0.48%.
With `COc1cccc(-n2sc3c(c2=S)-c2cc(OC)ccc2NC3(C)C)c1` the Potency was inconclusive: 29.1 µM [activator, single point].
For `CCCCCCCCCCCCCCCC(=O)OCC1OC(n2ccc(N)nc2=O)C(O)C1O` (stereo not drawn), the Potency was inconclusive: 0.82 µM [activator, full curve].
For `O=C(CCSc1ccccc1)N1CCCC1`, the Potency was inconclusive: 6.51 µM [activator, partial curve, poor fit].
With `CCOC(=O)C1CCCN(C(=O)COc2ccc(C(=O)c3ccc(F)cc3)cc2)C1` (stereo not drawn) the “re-replication activation” value was inactive: 2.77%.
For `Cc1cc(NC(=O)C(C)Sc2nc(-c3ccccc3)cc(=O)[nH]2)no1` (stereo not drawn), the Potency was inconclusive: 14.6 µM [activator, partial curve, poor fit].
For `Cc1ccc(N(C(=O)c2csnn2)C(C(=O)NC2CCCCC2)c2ccco2)cc1` (stereo not drawn), the “re-replication activation” value was inactive: 3.88%.
With `Cc1cccc(C)c1NC(=O)COC(=O)c1cccc2c1C(=O)c1ccccc1C2=O` the Potency was inconclusive: 29.1 µM [activator, single point].
For `O=S(=O)(c1cccc(-c2nc3ccccc3s2)c1)N1CCOCC1`, the “re-replication activation” value was inactive: 20%.
In the case of `Cc1cc(C2(c3ccc(O)c(C)c3)C(=O)Nc3ccccc32)ccc1O`, the Potency is reported as inconclusive: 29.1 µM [activator, single point].
In the case of `CC1CN(c2ccc([N+](=O)[O-])cc2Cl)CCN1S(C)(=O)=O` (stereo not drawn), the Potency is reported as inconclusive: 6.51 µM [activator, partial curve, poor fit].
For `CC(=O)NC1CC2CCCC(C1)N2Cc1ccc(C)cc1` (stereo not drawn), the “re-replication activation” value was inactive: -6.15%.
With `Cc1ccccc1OCC(=O)Nc1cccc2nsnc12` the Potency was inconclusive: 18.4 µM [activator, single point].
For `Cc1ccc(C(=O)NNC(=S)Nc2cccc3ccccc23)s1`, the re-replication activation was inactive: 0.659% [at 9.22 µM].
In the case of `Cc1nn(CCC(N)=O)c2nc(-c3cccs3)cc(C(F)(F)F)c12`, the Potency is reported as inconclusive: 4.61 µM [activator, single point].
In the case of `Cc1cc(=O)[nH]c(SCC(=O)Nc2cc(S(=O)(=O)N(C)C)ccc2Cl)n1`, the Potency is reported as inconclusive: 16.4 µM [activator, partial curve, poor fit].
For `CCCC1=C(C(=O)OCC)C(/C=C/c2ccccc2)n2ncnc2N1` (stereo not drawn), the Potency was inconclusive: 28.2 µM [activator, single point].
In the case of `CN(CCc1ccccc1)C(=O)c1ccc(NC(=O)Cc2ccc(NC(=O)C3CCN(C(=O)C4CC4)CC3)cc2)cc1`, the Potency is reported as inconclusive: 32.6 µM [activator, partial curve, poor fit].
In the case of `Cc1[nH]c2ccccc2c1C(=O)C(=O)N1CCN(c2cccc(Cl)c2)CC1`, the Potency is reported as inconclusive: 18.4 µM [activator, single point].
In the case of `Cc1cc(Br)ccc1OCC(=O)N(Cc1nc(-c2ccccc2)no1)C(C)C`, the Potency is reported as inconclusive: 29.1 µM [activator, single point].
For `CCN(CC(=O)Nc1ccccc1OC)Cc1csc(CC(=O)Nc2ccc(C)cc2)n1`, the Potency was inconclusive: 29.1 µM [activator, single point].
With `CCN(CC)S(=O)(=O)c1cccc(C(=O)NN2Cc3ccccc3C2=N)c1` the Potency was inconclusive: 9.2 µM [activator, partial curve, poor fit].
In the case of `CN(CC(=O)Nc1cccc(F)c1)C(=O)c1cc(-c2ccco2)nc2ccccc12`, the Potency is reported as inconclusive: 29.1 µM [activator, partial curve, poor fit].
With `COc1ccccc1C(CCN(Cc1ccccc1)C(C)=O)c1ccco1` (stereo not drawn) the Potency was inconclusive: 29.1 µM [activator, single point].
For `Brc1ccc(C2CC(c3ccccc3)=Nc3ccccc3N2)cc1` (stereo not drawn), the Potency was inconclusive: 29.1 µM [activator, single point].
In the case of `COc1cc2c(cc1OC)C(=O)CCC2`, the “re-replication activation” value is reported as inactive: -1.19%.
With `N=c1n(CCCOc2ccccc2Cl)c2ccccc2n1CC(N)=O` the Potency was inconclusive: 29.1 µM [activator, single point].
For `COc1ccc(Nc2ncc3c(n2)CC(c2ccc(C)cc2)CC3=O)cc1` (stereo not drawn), the Potency was inconclusive: 23.1 µM [activator, partial curve, poor fit].
In the case of `O=c1cc(N2CCN(c3ccccc3Cl)CC2)[nH]c(=O)n1Cc1ccc(F)cc1`, the Potency is reported as inconclusive: 25.9 µM [activator, single point].
With `Fc1c(F)c(C(F)(F)F)c(F)c(F)c1N/N=C\c1cccs1` the Potency was inconclusive: 18.4 µM [activator, single point].
For `CCn1c(SCc2nc3ccccc3s2)nc2cc(S(=O)(=O)N3CCOCC3)ccc21`, the Potency was inconclusive: 16.4 µM [activator, single point].
In the case of `O=C(N/C(=C/c1ccc(F)cc1)C(=O)N1CCCCC1)c1ccco1`, the Potency is reported as inconclusive: 32.6 µM [activator, partial curve, poor fit].
With `COc1ccc(NC(=O)CSCC(=O)N(C)Cc2ccc(Cl)c(Cl)c2)cc1` the “re-replication activation” value was inactive: 0.605%.
For `COc1ccccc1NC(=O)Nc1ccc(S(=O)(=O)Nc2onc(C)c2C)cc1`, the “re-replication activation” value was inactive: -2.39%.
For `CN1CCC(=C2c3ccccc3CCc3sccc32)CC1`, the Potency was “inactive”.
For `CN1CCC(N(C)C(=O)c2ccc(Cl)c(S(=O)(=O)N3CCc4ccccc43)c2)CC1`, the Potency was inconclusive: 20.6 µM [activator, single point].
In the case of `O=C(CCS(=O)(=O)c1ccc(Cl)cc1)Nc1nc(-c2ccncc2)cs1`, the Potency is reported as inconclusive: 18.4 µM [activator, single point].
In the case of `COc1ccc(/C=C/c2ccc3c(Br)ccc(O)c3n2)cc1`, the Potency is reported as inconclusive: 29.1 µM [activator, single point].
For `CC(C)NC(=O)CC(c1ccccc1)c1cc(Br)ccc1O` (stereo not drawn), the Potency was inconclusive: 32.6 µM [activator, partial curve, poor fit].
With `Cc1ccc(C)c(N2C(=O)CC(Cc3ccc(Cl)cc3)C2=O)c1` (stereo not drawn) the Potency was inconclusive: 18.4 µM [activator, single point].
In the case of `COc1cc(/C=C/c2nc(N)nc(-c3ccccc3O)n2)cc(OC)c1OC`, the Potency is reported as inconclusive: 18.4 µM [activator, partial curve, poor fit].
With `CC(=NNC(=S)SCc1ccccc1)c1ccccn1` the Potency was inconclusive: 0.206 µM [activator, full curve].
In the case of `CCN(CCCNC(=O)CC(C(=O)N1CCc2ccccc21)n1ccnc1)c1cccc(C)c1` (stereo not drawn), the “re-replication activation” value is reported as inactive: -1.79%.
For `COc1ccc(-c2cn[nH]c2-c2ccc(OCc3ccccc3)cc2O)cc1`, the Potency was inconclusive: 18.4 µM [activator, single point].
For `COc1ccc(OC)c(CN2CCN(S(=O)(=O)c3ccccc3)CC2)c1`, the “re-replication activation” value was inactive: 0.194%.
For `Cc1ccccc1NC(=O)c1cn(-c2ccccc2)nc1-c1ccccc1`, the “re-replication activation” value was inactive: 3.27%.
In the case of `CCc1ccc(C(=O)CCC(=O)Nc2cccc(S(=O)(=O)N3CCCCC3)c2)cc1`, the Potency is reported as inconclusive: 0.116 µM [activator, full curve, poor fit].
For `CCCn1c2ccccc2c2cnn(CC(=O)NCCCN3CCCCC3)c(=O)c21`, the re-replication activation was inconclusive: -29.4% [activator].
With `COc1cc(/C=N/O)cc(Br)c1OC` the “re-replication activation” value was inactive: 0.865%.
With `CN(C(=O)/C=C/c1cnc2ccccc2c1)C1CCCCC1` the Potency was inconclusive: 6.51 µM [activator, partial curve, poor fit].
For `Cc1c(C(=O)Nc2ccccc2F)sc2ncn(CC(=O)N3CCOCC3)c(=O)c12`, the “re-replication activation” value was inactive: 10.1%.
In the case of `COc1ccc(OC)c(-c2csc(-c3cccs3)n2)c1`, the Potency is reported as inconclusive: 16.4 µM [activator, partial curve, poor fit].
